Experimental data reported in US20120039904A1 (Kyowa Kirin, published 2012).
Where a chain is given by its changes, count along the chain named. Results are given in words; binding and its absence hold for the method and conditions named. Some entries that bind do so weakly or less than the wild type. Where a sequence is shown, tags or fusion partners need not be part of it. Values belong to the binder of their own block, whether it stands above or below them.

Key:
[1] = biological target: T1, mouse EL3 type ASCT2-myc/His (mouse/human chimeric ASCT2), expressed on CHO cells (human/mouse chimera) (UniProt Q15758); test: flow cytometry on mEL3/CHO cells; '+' = presence of reactivity
T1 sequence: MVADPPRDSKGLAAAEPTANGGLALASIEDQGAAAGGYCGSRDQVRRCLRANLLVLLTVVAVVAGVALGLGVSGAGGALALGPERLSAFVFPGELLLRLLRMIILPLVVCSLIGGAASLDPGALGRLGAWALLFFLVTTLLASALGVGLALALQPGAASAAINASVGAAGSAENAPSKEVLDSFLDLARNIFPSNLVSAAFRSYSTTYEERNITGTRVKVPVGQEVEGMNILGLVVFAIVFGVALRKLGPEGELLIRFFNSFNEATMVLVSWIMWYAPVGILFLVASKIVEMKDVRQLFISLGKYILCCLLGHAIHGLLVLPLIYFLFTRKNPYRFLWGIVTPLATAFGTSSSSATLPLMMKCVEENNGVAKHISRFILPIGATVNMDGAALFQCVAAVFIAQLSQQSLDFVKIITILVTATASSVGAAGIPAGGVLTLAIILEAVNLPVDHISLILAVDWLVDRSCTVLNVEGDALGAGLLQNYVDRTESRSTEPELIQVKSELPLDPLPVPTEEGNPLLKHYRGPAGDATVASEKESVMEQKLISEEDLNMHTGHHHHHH

[2] = biological target: T2, mouse EL1 type ASCT2-myc/His (mouse/human chimeric ASCT2), expressed on CHO cells (human/mouse chimera) (UniProt Q15758); test: flow cytometry on mEL1/CHO cells; '+' = presence of reactivity
T2 sequence: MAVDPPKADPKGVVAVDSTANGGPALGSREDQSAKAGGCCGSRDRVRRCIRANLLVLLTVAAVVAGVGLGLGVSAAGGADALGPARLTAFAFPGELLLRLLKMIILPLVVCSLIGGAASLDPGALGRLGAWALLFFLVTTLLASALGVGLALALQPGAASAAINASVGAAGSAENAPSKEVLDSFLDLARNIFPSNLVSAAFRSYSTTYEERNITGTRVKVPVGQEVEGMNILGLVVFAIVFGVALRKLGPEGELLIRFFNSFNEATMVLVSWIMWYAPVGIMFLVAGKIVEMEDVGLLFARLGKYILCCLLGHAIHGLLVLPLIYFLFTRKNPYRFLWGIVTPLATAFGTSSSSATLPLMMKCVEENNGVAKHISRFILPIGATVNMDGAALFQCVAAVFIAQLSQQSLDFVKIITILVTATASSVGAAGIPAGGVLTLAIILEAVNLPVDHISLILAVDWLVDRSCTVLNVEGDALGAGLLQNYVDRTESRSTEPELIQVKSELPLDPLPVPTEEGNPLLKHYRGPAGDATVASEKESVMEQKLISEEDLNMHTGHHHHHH

binding [1]: binds | binding [2]: binds
B1: anti-ASCT2 monoclonal antibody KM4008 (antibody, V domains shown)
VH: QIQLVQSGPELKKPGETVKISCKASGYTFTTFGMSWVKQVPGKGLKWMGWIHTYAGVPIYGDDFKGRFAFSLETSASTAYLQINNVKNEDTATYFCARRSDNYRYFFDYWGQGTTLTVSS
VL: DIQMTQTTSSLSASLGDRVTISCRASQDIRNYLNWYQRKPHGTVKLLIYYTSRLHSGVPSRFSGSGSGTDYSLTISNLEQEDIATYFCQQGHTLPPTFGGGTKLEIKR
notes: mouse IgG3, kappa (amplified with a mouse Ig kappa primer)

binding [1]: binds | binding [2]: binds
B2: anti-ASCT2 monoclonal antibody KM4012 (antibody, mouse IgG2b, V domains shown)
VH: B1 VH with F32Y, V40T, A55S, F64S, A76G, T78I, N102G
VL: B1 VL with T7I, R38Q, H41D, H92N
notes: mouse IgG2b, kappa
